This is one part of the list. Most values lie at the level of the controls, where differences are scatter.
Legend:
ppGalNAc-T3 sensor = assay: T3 sensor activation Q score (MG/GFP ratio z-score vs DMSO controls) (SD units); higher = more sensor activation (inhibition of ppGalNAc-T3 glycosylation); conditions: HEK293 sensor cells; 10 µM; 6 h
Procedure: (§1)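 Cells were treated with compound at 10 uM for 6 h, then MG/GFP ratio was read by flow cytometry (10,000 cells per well, duplicate wells). Q = (R - R_neg)/SD_neg relative to DMSO vehicle controls; the signal rises when the glycosyltransferase is inhibited.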

ppGalNAc-T2 sensor = assay: T2 sensor activation Q score (MG/GFP ratio z-score vs DMSO controls) (SD units); higher = more sensor activation (inhibition of ppGalNAc-T2 glycosylation); conditions: HEK293 sensor cells; 10 µM; 6 h
Procedure: as §1

SMILES	T3 sensor activation Q score (ppGalNAc-T3 sensor)	T2 sensor activation Q score (ppGalNAc-T2 sensor)
CN1CCN(Cc2ccccc2)CC1	0.53	0.825
Brc1ccc(CN2CCNCC2)cc1	-0.235	-0.805
COc1cc(CN2CCN(C)CC2)cc(OC)c1	0.105	1.49
CCN1CCN(Cc2cccc(Cl)c2)CC1	-0.065	0.55
Fc1ccccc1CN1CCN(Cc2ccc3c(c2)OCO3)CC1	-0.65	0.225
CCOc1ccccc1N1CCN(Cc2cccc(OC)c2)CC1	0.18	-0.33
COc1ccccc1N1CCN(Cc2ccc(C)cc2C)CC1	0.1	0.13
c1ccc(CN2CCN(c3ccccc3)CC2)cc1	0.49	0.635
COc1ccc(OC)c(CN2CCN(C)CC2)c1	0.35	-0.455
Brc1ccc(CN2CCN(Cc3ccc4c(c3)OCO4)CC2)cc1	0.39	-0.025
Fc1cccc(CN2CCN(Cc3ccc4c(c3)OCO4)CC2)c1	-1.22	-0.665
CN(CCc1ccccc1)Cc1c(F)cccc1F	0.235	-0.075
CCOc1ccccc1CN1CCN(c2ccccc2OC)CC1	0.435	0.245
Cc1ccc(CNC(C)Cc2ccccc2)o1 (stereo not given)	-0.37	0.19
COc1ccccc1CN1CCN(c2cc(C)ccc2C)CC1	-0.03	0.64
COc1ccc(CN2CCN(c3ccccc3)CC2)cc1C	-0.495	-1.08
Cc1[nH]c2ccc(C(=O)O)cc2c1CCN	1.15	0.02
Cc1cccc(N2CCN(Cc3ccc(N(C)C)cc3)CC2)c1C	-0.045	0.655
Cc1ccccc1N1CCN(Cc2ccc(O)cc2)CC1	0.225	1.36
COc1cc(CN2CCN(c3ccccc3)CC2)cc(OC)c1O	0.43	-0.065

Sorted by number of heavy atoms (low to high): 3 of the compounds above
SMILES	T3 sensor activation Q score (ppGalNAc-T3 sensor)	T2 sensor activation Q score (ppGalNAc-T2 sensor)
COc1cc(CN2CCN(C)CC2)cc(OC)c1	0.105	1.49
COc1ccccc1N1CCN(Cc2ccc(C)cc2C)CC1	0.1	0.13
Brc1ccc(CN2CCN(Cc3ccc4c(c3)OCO4)CC2)cc1	0.39	-0.025

— the supplement of paper PMC5407854, “Inhibitor of ppGalNAc-T3-mediated O-glycosylation blocks cancer cell invasiveness and lowers FGF23 levels” (eLife, 2017)
